Measured values reported in patent US20030039628A1, “Activation and protection of T-cells (CD4+ and CD8+) using an H2 receptor agonist and other T-cell activating agents” (priority 1998, published 2003).
At least one structure is not confirmed: it was looked up by name or label, or the drawing left a doubt.

Key:
[1] = tested on: T-cells and NK-cells; experiment: MO-induced cell death (apoptosis) of T-cells and NK-cells, flow cytometry; type: cell-based, human; conditions: concentrations equimolar to 10-fold lower than histamine
Procedure: In this Example, apoptotic morphology of lymphocytes exposed to MO was monitored by staining cells with a dye mix containing acridine orange (10:g/ml; Sigma) and ethidium bromide (10:g/ml; Sigma), both prepared in phosphate buffered saline. One microliter (1:1) of dye mix was added to 25:1 of cells suspension (1-2×10^6/ml) in siliconized test tubes. Thereafter, 10:1 of the cell suspension was placed on a glass slide and immediately counted in a fluorescence microscope (Nikon) under times forty (×40) magnification with qualification of dead, living, apoptotic and non-apoptotic cells. (See Hellstrand, K., et al. J. Immunol., 153: 4940-4947 (1994); Hansson, M., et al., J. Immunol. 156:42-47 (1996)).
(See Hansson M., et al., supra). Cell death in lymphocytes was monitored by gating nonviable T-cells or NK-cells after exposure to MO, with and without histamine or catalase. A gate with reduced forward scatter and increased right angle scatter characteristic of apoptosis was employed in these studies. (See Hansson M., et al., supra; Mizgerd J. P., et al., J. Leukoc. Biol. 59:189 (1996); herein incorporated by reference; gate also described in Example 1).

[2] = tested on: CD69 expression on T-cells; experiment: CD69 expression on T-cells incubated with or without autologous monocytes (MO), flow cytometry; type: cell-based, human; conditions: equimolar or 10-fold lower concentrations than histamine
Procedure: To study the activation characteristics of T-cells in the presence and absence of MO, T-cell activation compounds, H2-receptor agonists, and H2O2 scavengers, peripheral venous blood was obtained as freshly prepared leukopacks from healthy blood donors at the Blood Centre, Sahlgren's Hospital, Göteborg, Sweden. The blood (65 ml) was mixed with 92.5 ml Iscove's medium, 35 ml 6% Dextran (Kabi Pharmacia, Stockholm, Sweden) and 7.5 ml acid citrate dextrose (ACD) (Baxter, Deerfield, Ill.). After incubation for 15 minutes at room temperature, the supernatant was carefully layered onto Ficoll-Hypaque (Lymphoprep, Myegaard, Norway). […]
Flow cytometry was used in the experiments described below to identify the various sub-populations of T-cells. […] The effects of MO exposure in the presence and absence of histamine and T-cell activation compounds were determined using the CD69 T-cell activation marker. […]
The following protocol was used in experiments reporting the detection of surface antigens of cell populations. […] The cells were washed twice in PBS and resuspended in 500:1 sterile filtered PBS and analyzed by use of flow cytometry on a FACSort with a Lysys II software program (Becton & Dickenson). […] The flow rate was adjusted to <200 cells×s^− and at least 5×10^3 cells were analyzed for each sample, if not otherwise stated. […]

## CNC(=C[N+](=O)[O-])NCCSCc1ccc(CN(C)C)o1 [ranitidine]
[1]
  reversal of the histamine effect on MO-induced cell death: completely reversed
[2]
  antagonism of the histamine response on cytokine-induced CD69 expression: completely antagonized
